From PubChem BioAssay AID540276 (National Center for Advancing Translational Sciences (NCATS), 2011)
Among all 300,000 compounds or so, about 5,400 (1.8%) were called active. This list was built around the results that the source calls inconclusive (neither active nor inactive); the mix of calls is not that of the screen. Calls come from the whole dose curve; tested in HEK293 cells. Where the call is inconclusive, the potency comes from a doubtful curve fit.

Assay: qHTS for inhibitors of binding or entry into cells for Marburg Virus
Conditions: Marburg virus pseudotyped entry inhibition, cell reporter; activity change, negative = inhibition: at 37.8 µM (top of the series) unless noted
% is set by controls: 0 for no effect and ±100 for the full control effect; potency is the fitted concentration of half-maximal effect.

Row | Structure (SMILES) | activity change, negative = inhibition | Potency
1 | O=C(O)C1Nc2c(C(=O)N3CCOCC3)cccc2C2C=CCC12 (stereo not given) | inactive: -9.86% | 
2 | O=C(NC1CCCCC1)c1cc([N+](=O)[O-])ccc1N1CCOCC1 |  | inconclusive: 6.51 µM [activator, single point]
3 | O=C(COc1ccccc1)n1nc(-c2ccc(Cl)cc2)nc1NCc1ccco1 |  | inconclusive: 29.1 µM [inhibitor, single point]
4 | CCN(CC)S(=O)(=O)c1ccc(Cl)c(NC(=O)CSc2nnc(-c3cccs3)o2)c1 |  | inconclusive: 1.26 µM [inhibitor, single point]
5 | CC(C)(C)NC(=O)c1ccnc(C(C)(C)C)c1 | inactive: 5.28% | 
6 | COc1ccc(N(CC(=O)N2CCN(c3cccc(C)c3)C(C)C2)S(=O)(=O)c2c(C)n[nH]c2C)cc1 (stereo not given) |  | inconclusive: 1 µM [inhibitor, full curve, poor fit]
7 | N#C/C(=C\c1ccc(O)c(O)c1)C(=O)NCc1ccccc1 |  | inconclusive: 17.8 µM [inhibitor, partial curve, poor fit]
8 | O=C(NC1CC2CCCC(C1)N2Cc1ccccc1)c1cccc(Cl)c1 (stereo not given) |  | active: 1.26 µM
9 | Cc1ccc(N2CCC(N3CCN(C)C(CCO)C3)CC2)cc1 (stereo not given) |  | inconclusive: 1.12 µM [activator, full curve, poor fit]
10 | O=C(CSc1nnc(-c2ccccc2F)n1CCc1ccccc1)Nc1ccc2[nH]c(=O)[nH]c2c1 |  | inconclusive: 35.5 µM [inhibitor, single point]
11 | C/C(CC(=O)Nc1ccc(N(C)C)cc1)=N\NC(=O)C(=O)NCc1ccccc1 | inactive: 34.7% [at 46.1 µM] | 
12 | CCCCn1cc2c(c1-c1ccccc1Br)c(=O)n(C)c(=O)n2C | inactive: -22.1% [at 46.1 µM] | 
13 | Cc1ccc(C)c(OCC(=O)Nc2cc(NC(=O)COc3cc(C)ccc3C)cc(C(=O)O)c2)c1 | inactive: 5.47% | 
14 | CCCCn1nnc(NC(=S)NC(=O)c2ccc(-c3cccc(Cl)c3Cl)o2)n1 |  | inconclusive: 0.891 µM [activator, partial curve, poor fit]
15 | COc1cc(/C=C(\NC(C)=O)C(=O)NC(C)(C)C)ccc1OC(C)=O | inactive: 1.79% | 
16 | C/C(=N\Nc1ccccn1)c1ccc(C(C)C)cc1 |  | inconclusive: 35.5 µM [inhibitor, single point]
17 | N#C/C(=C(/O)c1ccco1)c1nc2ccccc2s1 |  | inconclusive: 35.5 µM [inhibitor, single point]
18 | NC(N)=NC(N)=Nc1cccc2ccccc12 | inactive: 2.57% [at 46.1 µM] | 

An excerpt from above in order of count of non-hydrogen atoms, rising:
Row | Structure (SMILES) | activity change, negative = inhibition | Potency
18 | NC(N)=NC(N)=Nc1cccc2ccccc12 | inactive: 2.57% [at 46.1 µM] | 
16 | C/C(=N\Nc1ccccn1)c1ccc(C(C)C)cc1 |  | inconclusive: 35.5 µM [inhibitor, single point]
9 | Cc1ccc(N2CCC(N3CCN(C)C(CCO)C3)CC2)cc1 (stereo not given) |  | inconclusive: 1.12 µM [activator, full curve, poor fit]
2 | O=C(NC1CCCCC1)c1cc([N+](=O)[O-])ccc1N1CCOCC1 |  | inconclusive: 6.51 µM [activator, single point]
15 | COc1cc(/C=C(\NC(C)=O)C(=O)NC(C)(C)C)ccc1OC(C)=O | inactive: 1.79% | 
8 | O=C(NC1CC2CCCC(C1)N2Cc1ccccc1)c1cccc(Cl)c1 (stereo not given) |  | active: 1.26 µM
11 | C/C(CC(=O)Nc1ccc(N(C)C)cc1)=N\NC(=O)C(=O)NCc1ccccc1 | inactive: 34.7% [at 46.1 µM] | 
4 | CCN(CC)S(=O)(=O)c1ccc(Cl)c(NC(=O)CSc2nnc(-c3cccs3)o2)c1 |  | inconclusive: 1.26 µM [inhibitor, single point]
13 | Cc1ccc(C)c(OCC(=O)Nc2cc(NC(=O)COc3cc(C)ccc3C)cc(C(=O)O)c2)c1 | inactive: 5.47% | 

(listing goes on)

Row | Structure (SMILES) | activity change, negative = inhibition | Potency
19 | CCCCSc1nc(C)cc(SCC(=O)N/N=C/c2ccccc2)n1 |  | inconclusive: 31.6 µM [inhibitor, partial curve, poor fit]
20 | COC(=O)c1ccccc1N=C(SC)N(C)C |  | inconclusive: 12.6 µM [activator, single point]
21 | Cc1cc(N2CCN(C)CC2)nc2ccccc12 | inactive: -1.38% [at 46.1 µM] | 
22 | CNC(=S)N(C)/N=C1/C(=O)N(Cc2c(Cl)cccc2Cl)c2ccccc21 |  | inconclusive: 20 µM [inhibitor, partial curve, poor fit]
23 | C=CCOn1c(=O)c(-c2cccs2)[n+]([O-])c2ccccc21 | inactive: 36.9% | 
24 | COc1ccc(CN2C(=O)c3oc4ccc(F)cc4c(=O)c3C2c2ccc(O)cc2)cc1 (stereo not given) | inactive: 2.07% [at 46.1 µM] | 
25 | Cc1csc(SCC(=O)Nc2cc(S(=O)(=O)N(C)C)ccc2C)n1 | inactive: -28.2% [at 46.1 µM] | 
26 | CC(C(=O)O)N1C(=O)/C(=C/C=C/c2ccco2)SC1=S (stereo not given) |  | inconclusive: 14.1 µM [inhibitor, partial curve, poor fit]
27 | N#CC(=C(\N)Sc1ccccc1N)/C(C#N)=C(/N)Sc1ccccc1N |  | inconclusive: 14.1 µM [inhibitor, partial curve, poor fit]
28 | COc1ccc2[nH]c3c(=O)n(Cc4ccc(C(=O)N5CCCC5)cc4)c(=S)[nH]c3c2c1 |  | inconclusive: 32.6 µM [inhibitor, single point]
29 | C(=NOCCc1ccccc1)c1ccccn1 |  | inconclusive: 10 µM [activator, partial curve]
30 | Fc1ccc(/C=C\c2nccc3c2[nH]c2ccccc23)cc1 |  | inconclusive: 11.2 µM [inhibitor, single point]
31 | C=CCn1c(SCC(=O)NC2CC2)nnc1-c1cccc(OC)c1 | inactive: 0.014% [at 46.1 µM] | 
32 | O=C(COC(=O)c1ccccc1[N+](=O)[O-])NNC(=O)c1cccs1 | inactive: 1.96% | 
33 | COc1ccc(NC(=O)COc2cccnc2[N+](=O)[O-])cc1OC |  | inconclusive: 5.62 µM [inhibitor, single point]
34 | CC1CCN(c2nc3c(c(=O)[nH]c(=O)n3C)n2CC(C)CSc2nnnn2-c2ccccc2)CC1 (stereo not given) |  | inconclusive: 14.1 µM [inhibitor, partial curve, poor fit]
35 | Cc1ccc2oc(-c3cccc(NC(=S)NC(=O)/C=C/c4ccco4)c3)nc2c1 |  | inconclusive: 35.5 µM [inhibitor, single point]
